# Where a name gives a salt, the structure may show the parent alone. The list shows a part of the results. Hit calls seldom repeat between salt and free forms of one compound.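 Kinases were expressed as nanoluciferase fusions in K562 cells and luminescence was read every 4 h between 2 and 18 h as percent of control, DMSO set to 100% and a positive control to 0%. A time point counts as decreased when the signal drops significantly (2 sigma). The hit call is the authors' own, does not follow from the count of time points alone, and its rule is not shown.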
# Amino acid sequences for entries named in this document (tags omitted).
# UniProt Q01974, whole entry: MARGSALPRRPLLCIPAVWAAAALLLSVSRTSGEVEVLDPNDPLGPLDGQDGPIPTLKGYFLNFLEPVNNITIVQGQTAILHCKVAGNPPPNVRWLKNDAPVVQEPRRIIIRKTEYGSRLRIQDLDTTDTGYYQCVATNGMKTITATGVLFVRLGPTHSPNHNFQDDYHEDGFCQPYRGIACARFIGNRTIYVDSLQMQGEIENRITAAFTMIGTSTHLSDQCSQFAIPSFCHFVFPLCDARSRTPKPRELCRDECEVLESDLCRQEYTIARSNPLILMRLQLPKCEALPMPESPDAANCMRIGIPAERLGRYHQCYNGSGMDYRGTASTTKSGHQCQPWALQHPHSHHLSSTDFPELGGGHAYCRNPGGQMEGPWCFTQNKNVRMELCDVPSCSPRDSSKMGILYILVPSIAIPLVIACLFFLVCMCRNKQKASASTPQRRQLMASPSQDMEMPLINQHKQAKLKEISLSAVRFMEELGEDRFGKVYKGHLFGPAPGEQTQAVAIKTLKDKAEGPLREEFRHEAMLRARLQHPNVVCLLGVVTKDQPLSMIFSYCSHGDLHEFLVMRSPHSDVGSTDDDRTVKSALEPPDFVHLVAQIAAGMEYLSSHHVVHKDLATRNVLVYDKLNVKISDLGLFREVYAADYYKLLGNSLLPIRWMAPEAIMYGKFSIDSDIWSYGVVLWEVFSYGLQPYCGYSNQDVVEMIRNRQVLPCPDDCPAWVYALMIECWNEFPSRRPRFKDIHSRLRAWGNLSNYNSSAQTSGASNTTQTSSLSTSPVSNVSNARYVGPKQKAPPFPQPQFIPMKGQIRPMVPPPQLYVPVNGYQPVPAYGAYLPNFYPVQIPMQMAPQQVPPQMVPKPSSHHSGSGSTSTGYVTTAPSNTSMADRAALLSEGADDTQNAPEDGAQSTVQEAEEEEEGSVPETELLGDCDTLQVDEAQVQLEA
# UniProt Q15418, whole entry: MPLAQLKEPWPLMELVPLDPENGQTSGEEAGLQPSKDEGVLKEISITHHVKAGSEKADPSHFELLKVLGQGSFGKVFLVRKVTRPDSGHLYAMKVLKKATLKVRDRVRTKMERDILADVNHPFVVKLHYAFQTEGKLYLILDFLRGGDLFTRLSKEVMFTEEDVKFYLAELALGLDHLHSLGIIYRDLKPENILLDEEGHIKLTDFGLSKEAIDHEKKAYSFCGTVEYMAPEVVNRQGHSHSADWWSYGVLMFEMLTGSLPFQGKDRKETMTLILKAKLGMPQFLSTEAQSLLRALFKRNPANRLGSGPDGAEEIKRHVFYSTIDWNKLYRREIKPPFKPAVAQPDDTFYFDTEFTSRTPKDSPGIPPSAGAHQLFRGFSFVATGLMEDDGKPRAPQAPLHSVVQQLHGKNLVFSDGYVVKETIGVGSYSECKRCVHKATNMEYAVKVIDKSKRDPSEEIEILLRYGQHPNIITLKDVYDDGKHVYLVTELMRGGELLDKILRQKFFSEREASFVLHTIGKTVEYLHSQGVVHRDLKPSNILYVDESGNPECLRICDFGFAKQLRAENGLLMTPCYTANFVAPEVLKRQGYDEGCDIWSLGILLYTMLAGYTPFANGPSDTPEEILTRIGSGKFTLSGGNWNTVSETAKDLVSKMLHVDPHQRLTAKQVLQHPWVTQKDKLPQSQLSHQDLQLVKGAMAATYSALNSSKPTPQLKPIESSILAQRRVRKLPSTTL
# Target: ROR2 (UniProt Q01974)
# Assay: number of time points (of 5) at which kinase-Nluc abundance scored as decreased, DMSO-normalised (count); higher = more persistent destabilization
# Conditions: K562; 2-18 h
row,SMILES,number of time points
1,Cc1ccc(-n2nc(C(C)(C)C)cc2NC(=O)Nc2ccc(OCCN3CCOCC3)cc2)cc1 (10 µM),0
2,c1ccc(Cn2c(-c3ccc(OC[C@H](C4CCNCC4)n4c(-c5ccccc5)nc5ccccc54)cc3)nc3ccccc32)cc1 [Deltarasin] (2.5 µM),0
3,C=CC(=O)N1CC[C@@H](Oc2nc(Nc3ccc(N4CCC(N5CCN(C)CC5)CC4)cc3)c(C(N)=O)nc2CC)C1 [Naquotinib (mesylate)] (2.5 µM),0
4,Cc1cc(O)c2c(c1)C(=O)c1cccc(O)c1C2=O [Chrysophanol] (2 µM),0
5,Cc1cc(C(=O)NC(C)(C)C)cc(C#Cc2ccc3c4c(oc3c2)C(C)(C)c2cc(NS(C)(=O)=O)ccc2C4=O)n1 (10 µM),0
6,Nc1nc(NCCNc2ncc(-n3ccnc3)c(-c3ccc(Cl)cc3Cl)n2)ccc1[N+](=O)[O-] (2.5 µM),0
7,Cn1c(CNc2cccc(C(=O)NCc3ccccc3C(F)(F)F)c2)nnc1-c1ccncc1 (10 µM),0

# Target: RPS6KA1 (UniProt Q15418)
# Assay: as above
# Conditions: K562; 2-18 h
row,SMILES,number of time points
1,CC(C)n1ncnc1-c1cn2c(n1)-c1ccc(O[C@@H](C)C(N)=O)cc1OCC2 (10 µM),0
2,O=C(c1cccc(Cl)c1F)N1CCN(Cc2cccc(Nc3nccs3)n2)CC1 (2.5 µM),0
3,COc1cc(F)ccc1-c1ncnc(Nc2cccc(C[S@](C)(=N)=O)c2)n1 [Atuveciclib] (2.5 µM),0
4,Cc1cnc(NC(=O)c2cc(Oc3cnc(C(=O)N(C)C)nc3)c3cc(C)oc3c2)cn1 (10 µM),0
5,CC1=C(C(=O)Nc2cc3cn[nH]c3cc2F)C(c2ccc(C(F)(F)F)cc2)CC(=O)N1 (configuration not stated) (10 µM),0
6,NCC1CCC(CNc2nc(NCc3ccccc3OC(F)(F)F)ncc2[N+](=O)[O-])CC1 (configuration not stated) [PKC-theta inhibitor] (10 µM),0
7,O=C1Nc2ccc(I)cc2/C1=C/c1cc(Br)c(O)c(Br)c1 (10 µM),0
8,COc1cc(-c2oc3cc(O)cc(O)c3c(=O)c2O)ccc1O [Isorhamnetin] (10 µM),0
9,O=C1OC(/C=C/c2ccccc2)=NC/1=C\c1cccnc1 (10 µM),0
10,Cn1ncc(NC(=O)c2nc(-c3c(F)cccc3F)sc2N)c1N1CC[C@@H](N)[C@H](F)CC1 (10 µM),0
11,CNC(=O)CNc1cnc2ccc(-c3ccc(OC)c(OC)c3)cc2n1 (10 µM),0
12,CO[C@H]1C[C@@H]2CC[C@@H](C)[C@@](O)(O2)C(=O)C(=O)N2CCCC[C@H]2C(=O)O[C@H]([C@H](C)C[C@@H]2CC[C@@H](OCCO)[C@H](OC)C2)CC(=O)[C@H](C)/C=C(\C)[C@@H](O)[C@@H](OC)C(=O)[C@H](C)C[C@H](C)/C=C/C=C/C=C/1C [Everolimus] (10 µM),0
13,O=C(Nc1cccnc1)c1cc(-c2ccnc(F)c2)ccc1OCc1ccccc1 (10 µM),0
14,COc1c(O)cc2oc(-c3ccc(O)cc3)cc(=O)c2c1O [Hispidulin] (10 µM),0
15,O=C1CC[C@H](NC(=O)Cc2ccccc2)C(=O)N1 [Antineoplaston A10] (10 µM),0
16,CC(C)Oc1ccc(F)c(-c2cnc(N)c(C(=O)Nc3cnccc3N3CCC[C@@H](C(=O)O)C3)n2)c1 (2 µM),0
17,Nc1nc2c(nc(Br)n2[C@@H]2O[C@@H]3COP(=O)(O)O[C@H]3[C@H]2O)c(=O)[nH]1 [8-Bromo-cGMP (sodium)] (10 µM),0
18,Cc1cc(-n2c(=O)ccc3c[nH]c4nccc-4c32)ccc1F (10 µM),0
19,CO[C@H]1CC[C@H](N2C(=O)CNc3ncc(-c4ccc(C(C)(C)O)nc4)nc32)CC1 (2.5 µM),0
20,COc1cc2c(cc1OC)/C(=C/c1ccc(O)cc1)C(=O)N2 (10 µM),0
21,NCCOc1ccc(Cl)cc1C(=O)Nc1ccc([N+](=O)[O-])cc1Cl [HJC0152 hydrochloride] (2 µM),0
22,CCN(CC)CCOc1ccc(Nc2nc(-c3ccccc3NC(=O)CCN3CCN(C)CC3)nc3ccccc23)cc1 (2.5 µM),0
23,C=CC(=O)N1CCN(C(=O)CNc2cc(I)c(Cl)cc2O)CC1 [K-Ras(G12C) inhibitor 12] (10 µM),0
24,N[C@@H]1CCCN(c2c(/C=C3\SC(=O)NC3=O)cccc2-c2ccccc2)C1 (10 µM),0
25,O=C(Nc1cc(Cl)cc2c1[nH]c1cnccc12)c1cccnc1 (10 µM),0

# Exported tab-delimited: entries from further up
row	SMILES	number of time points
22	CCN(CC)CCOc1ccc(Nc2nc(-c3ccccc3NC(=O)CCN3CCN(C)CC3)nc3ccccc23)cc1 (2.5 µM)	0
23	C=CC(=O)N1CCN(C(=O)CNc2cc(I)c(Cl)cc2O)CC1 [K-Ras(G12C) inhibitor 12] (10 µM)	0
